± gives the standard deviation. Only a part is listed here, and it is no random draw. Many of these values have a large error.
tested on: MIWI (PIWIL1) piRISC loaded with L1MC piRNA (30 nt); test: pre-steady-state target cleavage rate (min^-1); MIWI and MILI are mouse PIWI proteins and EfPiwi is from a freshwater sponge; tags in brackets are library labels; higher = faster piRNA-guided slicing of the target; settings: guide: L1MC piRNA 5'p-UAACUAAAUACUAUGCAAGCUGUAGGUCCU; auxiliary factor: 500 nM mouse GTSF1
How it was run: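 Cleave-'n-Seq used a transcribed, DNA-blocked target RNA library at 0.1 nM and active affinity-purified piRISC with one synthetic guide at 1 nM, with or without 500 nM GTSF1 partner protein, in HEPES–potassium acetate buffer at 33 °C for 0–8 or 0–960 min. Uncleaved targets were sequenced and normalised to depth and to weakly complementary targets, and three trials were pooled with k3 capped at 0.0001 min^-1. The pre-steady-state cleavage rate was estimated by a burst-and-steady-state fit.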

| Sequence | pre-steady-state target cleavage rate |
| --- | --- |
| UCCUGGAUGUCCAACCAUAGUAUUUAGUUA | 0.00291 ± 0.0043 |
| UCCUGGAUGUCGAACCAUAGUAUUUCAGUUA | 0.000353 ± 0.015 |
| UCCUGGAUGUGCUUGCAUUAGUAUUUAGUUA | 0.00138 ± 0.011 |
| UCCUGGAUGUCGAUGGAUAGUUUUUAGUUA | 0.000196 ± 0.036 |
| UCCUGGAUGUGGUUCCAUAGUAUUUAGUUA | 0.00165 ± 0.01 |
| UCCUGGAUGAGCUUCGUUAGUAUUUAGUAA | 0.000309 ± 0.029 |

same assay, conditions: guide: L1MC piRNA 5'p-UAACUAAAUACUAUGCAAGCUGUAGGUCCU; auxiliary factor: none (no GTSF1)

| Sequence | pre-steady-state target cleavage rate |
| --- | --- |
| UCCUCCUACAGCUUCCAAAGUAUUUAGUUA | 0.0016 ± 0.0019 |
| UCCUGGAUCAGCUUGCUAUGUAUUUUCAAA | 0.000642 ± 0.01 |
| UCCUGGAUGUCGAACCAUUAGUAUUUAGUUA | 0.000356 ± 0.0094 |
| UCCUGGAUGUCCUUGGAUAGUAUUUAGAUA | 0.000468 ± 0.015 |
| UCCUGGAUGUCGAUGCAUAGGAUUUAGUUA | 0.000582 ± 0.011 |
| UCCUGCUAGAGCUUGCAUAGUAUUUACAAA | 0.00248 ± 0.003 |
| UCCUGCUACUCGUUGCAUAGUAUUUUCAAA | 0.000611 ± 0.0075 |
| UCCUGGAACAGCUUGCUAUAGUAUUUAGUUA | 0.00258 ± 0.0033 |
| UCCUGGAUGUCCAUGCAUAGUAUUAAGUUA | 0.00079 ± 0.012 |
| UCCUGGAUGUCGUUGCAUUGUAAUUAGUUA | 0.000206 ± 0.029 |
| UCCUGGAUCAGCUUGCUAAGUAUUUACAAA | 0.000374 ± 0.0052 |
| UCCUGGAUGAGCUUGCAUAGUUAUUAGUAA | 0.00177 ± 0.0048 |
| UCCUGCUACAGCUUGCAUUCUAUUUUCAAA | 0.000628 ± 0.011 |
| UCCUGGAACAGCUUGCAUCAGUAUUUAGUUA | 0.00109 ± 0.0057 |
| UCCUGGAUGUCCAUGCAUAGAAUUUAGUUA | 0.000945 ± 0.0065 |
| UCCUGGAUGAGCUUCCAUUGUAUUUAGUUA | 0.000896 ± 0.0068 |
| UCCUGGAUGUCCUUGCAUACGUAUUUAGUUA | 0.00106 ± 0.0078 |
| UCCUCCUACAGCUUGACAUAGUAUUUAGUUA | 0.00235 ± 0.0029 |

Quoted at random: 2 records from the list

| Sequence | pre-steady-state target cleavage rate |
| --- | --- |
| UCCUGGAUGAGCUUGCAUAGUUAUUAGUAA | 0.00177 ± 0.0048 |
| UCCUGGAUGUCCAUGCAUAGAAUUUAGUUA | 0.000945 ± 0.0065 |
